# Experimental data published in the supplement of paper PMC12067093, “Discovery and optimisation of a covalent ligand for TRIM25 and its application to targeted protein ubiquitination” (Chemical Science, 2025).
# By UniProt entry, the sequences of proteins in these tests, tags left out. Where a name states a change or a piece, a line headed by the entry shows the natural chain unless it says otherwise.
# UniProt O43396: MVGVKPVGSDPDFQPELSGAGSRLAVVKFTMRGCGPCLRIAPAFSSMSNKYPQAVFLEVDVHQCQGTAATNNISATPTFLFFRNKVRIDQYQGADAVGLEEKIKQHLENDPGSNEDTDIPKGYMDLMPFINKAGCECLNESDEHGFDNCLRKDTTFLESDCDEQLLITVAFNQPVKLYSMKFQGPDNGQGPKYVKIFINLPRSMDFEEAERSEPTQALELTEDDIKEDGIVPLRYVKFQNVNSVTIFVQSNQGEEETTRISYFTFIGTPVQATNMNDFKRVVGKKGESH
# UniProt Q9NPG3, whole entry, looked up: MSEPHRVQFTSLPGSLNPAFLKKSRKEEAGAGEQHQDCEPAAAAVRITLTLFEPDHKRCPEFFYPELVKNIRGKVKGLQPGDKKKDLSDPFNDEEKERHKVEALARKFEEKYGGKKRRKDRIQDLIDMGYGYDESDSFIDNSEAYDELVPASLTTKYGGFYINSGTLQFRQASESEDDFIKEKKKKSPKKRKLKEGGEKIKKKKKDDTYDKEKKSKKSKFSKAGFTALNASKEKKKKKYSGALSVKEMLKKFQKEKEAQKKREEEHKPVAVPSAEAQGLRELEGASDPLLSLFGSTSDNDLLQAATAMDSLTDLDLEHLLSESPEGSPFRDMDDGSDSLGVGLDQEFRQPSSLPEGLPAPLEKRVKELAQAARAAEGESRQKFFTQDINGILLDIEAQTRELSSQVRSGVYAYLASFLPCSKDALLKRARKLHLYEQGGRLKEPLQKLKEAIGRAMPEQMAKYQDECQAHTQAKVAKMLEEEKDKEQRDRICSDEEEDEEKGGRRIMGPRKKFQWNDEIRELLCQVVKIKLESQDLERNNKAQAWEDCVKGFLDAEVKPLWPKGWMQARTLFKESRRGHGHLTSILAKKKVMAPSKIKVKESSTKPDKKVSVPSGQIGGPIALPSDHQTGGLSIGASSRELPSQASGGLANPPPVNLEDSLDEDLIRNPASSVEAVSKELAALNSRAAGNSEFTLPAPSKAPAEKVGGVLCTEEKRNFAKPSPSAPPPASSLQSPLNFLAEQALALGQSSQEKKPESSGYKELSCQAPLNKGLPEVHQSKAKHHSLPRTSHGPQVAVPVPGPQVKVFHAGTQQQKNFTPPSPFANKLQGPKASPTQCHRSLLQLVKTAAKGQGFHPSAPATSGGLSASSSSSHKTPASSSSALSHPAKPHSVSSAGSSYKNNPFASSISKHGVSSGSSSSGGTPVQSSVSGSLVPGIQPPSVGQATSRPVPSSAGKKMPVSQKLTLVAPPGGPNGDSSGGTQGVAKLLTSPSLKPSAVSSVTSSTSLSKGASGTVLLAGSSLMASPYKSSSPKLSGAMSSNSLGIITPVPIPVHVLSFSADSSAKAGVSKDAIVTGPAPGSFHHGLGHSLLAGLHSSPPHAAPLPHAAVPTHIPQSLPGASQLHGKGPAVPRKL
# UniProt Q9BZL1: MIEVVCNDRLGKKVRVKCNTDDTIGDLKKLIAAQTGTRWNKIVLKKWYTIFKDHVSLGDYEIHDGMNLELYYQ
# UniProt Q8IWV7: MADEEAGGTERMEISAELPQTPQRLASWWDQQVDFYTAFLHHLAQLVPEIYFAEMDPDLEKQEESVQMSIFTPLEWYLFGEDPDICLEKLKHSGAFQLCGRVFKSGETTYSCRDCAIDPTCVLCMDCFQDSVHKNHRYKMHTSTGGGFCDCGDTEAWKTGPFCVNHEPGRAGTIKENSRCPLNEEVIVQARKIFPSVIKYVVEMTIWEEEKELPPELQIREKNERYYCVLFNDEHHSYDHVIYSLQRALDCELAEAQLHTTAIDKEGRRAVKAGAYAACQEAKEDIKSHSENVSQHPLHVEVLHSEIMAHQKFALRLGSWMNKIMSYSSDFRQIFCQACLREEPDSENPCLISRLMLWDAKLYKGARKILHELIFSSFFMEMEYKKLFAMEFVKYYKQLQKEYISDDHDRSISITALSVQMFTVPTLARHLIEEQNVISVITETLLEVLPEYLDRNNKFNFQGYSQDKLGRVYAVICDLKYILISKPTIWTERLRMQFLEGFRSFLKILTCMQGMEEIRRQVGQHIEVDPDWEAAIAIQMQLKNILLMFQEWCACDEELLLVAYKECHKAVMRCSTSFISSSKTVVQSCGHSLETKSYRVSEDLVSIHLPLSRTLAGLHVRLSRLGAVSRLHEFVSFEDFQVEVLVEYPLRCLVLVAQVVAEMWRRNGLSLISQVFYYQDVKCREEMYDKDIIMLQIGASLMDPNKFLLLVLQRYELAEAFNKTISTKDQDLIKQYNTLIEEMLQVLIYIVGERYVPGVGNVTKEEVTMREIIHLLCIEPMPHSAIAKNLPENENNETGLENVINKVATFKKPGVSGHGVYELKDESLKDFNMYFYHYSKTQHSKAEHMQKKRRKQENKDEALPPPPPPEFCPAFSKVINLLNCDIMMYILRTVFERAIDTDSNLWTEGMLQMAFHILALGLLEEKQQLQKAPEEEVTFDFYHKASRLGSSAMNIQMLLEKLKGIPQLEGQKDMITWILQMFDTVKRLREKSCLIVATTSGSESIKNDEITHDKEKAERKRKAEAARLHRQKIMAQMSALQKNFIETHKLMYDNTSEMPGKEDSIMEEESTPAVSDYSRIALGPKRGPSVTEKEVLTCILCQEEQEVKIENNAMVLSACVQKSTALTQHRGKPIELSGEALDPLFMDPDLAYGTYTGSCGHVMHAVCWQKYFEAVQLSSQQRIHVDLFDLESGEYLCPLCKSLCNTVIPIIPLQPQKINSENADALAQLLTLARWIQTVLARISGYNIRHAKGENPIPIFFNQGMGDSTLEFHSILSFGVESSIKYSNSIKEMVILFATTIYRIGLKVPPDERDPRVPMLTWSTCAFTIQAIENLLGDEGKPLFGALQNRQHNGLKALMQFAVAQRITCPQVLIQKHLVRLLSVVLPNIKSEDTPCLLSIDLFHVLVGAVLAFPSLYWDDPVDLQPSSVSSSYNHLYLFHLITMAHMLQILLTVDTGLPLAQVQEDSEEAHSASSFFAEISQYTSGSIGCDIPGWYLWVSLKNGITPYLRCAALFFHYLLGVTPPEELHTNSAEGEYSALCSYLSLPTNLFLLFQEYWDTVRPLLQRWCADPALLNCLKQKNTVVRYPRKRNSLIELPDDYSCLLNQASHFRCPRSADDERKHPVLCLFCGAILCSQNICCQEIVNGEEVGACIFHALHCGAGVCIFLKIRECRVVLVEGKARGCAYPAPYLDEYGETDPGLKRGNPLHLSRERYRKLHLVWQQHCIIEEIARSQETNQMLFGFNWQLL
# UniProt Q14157: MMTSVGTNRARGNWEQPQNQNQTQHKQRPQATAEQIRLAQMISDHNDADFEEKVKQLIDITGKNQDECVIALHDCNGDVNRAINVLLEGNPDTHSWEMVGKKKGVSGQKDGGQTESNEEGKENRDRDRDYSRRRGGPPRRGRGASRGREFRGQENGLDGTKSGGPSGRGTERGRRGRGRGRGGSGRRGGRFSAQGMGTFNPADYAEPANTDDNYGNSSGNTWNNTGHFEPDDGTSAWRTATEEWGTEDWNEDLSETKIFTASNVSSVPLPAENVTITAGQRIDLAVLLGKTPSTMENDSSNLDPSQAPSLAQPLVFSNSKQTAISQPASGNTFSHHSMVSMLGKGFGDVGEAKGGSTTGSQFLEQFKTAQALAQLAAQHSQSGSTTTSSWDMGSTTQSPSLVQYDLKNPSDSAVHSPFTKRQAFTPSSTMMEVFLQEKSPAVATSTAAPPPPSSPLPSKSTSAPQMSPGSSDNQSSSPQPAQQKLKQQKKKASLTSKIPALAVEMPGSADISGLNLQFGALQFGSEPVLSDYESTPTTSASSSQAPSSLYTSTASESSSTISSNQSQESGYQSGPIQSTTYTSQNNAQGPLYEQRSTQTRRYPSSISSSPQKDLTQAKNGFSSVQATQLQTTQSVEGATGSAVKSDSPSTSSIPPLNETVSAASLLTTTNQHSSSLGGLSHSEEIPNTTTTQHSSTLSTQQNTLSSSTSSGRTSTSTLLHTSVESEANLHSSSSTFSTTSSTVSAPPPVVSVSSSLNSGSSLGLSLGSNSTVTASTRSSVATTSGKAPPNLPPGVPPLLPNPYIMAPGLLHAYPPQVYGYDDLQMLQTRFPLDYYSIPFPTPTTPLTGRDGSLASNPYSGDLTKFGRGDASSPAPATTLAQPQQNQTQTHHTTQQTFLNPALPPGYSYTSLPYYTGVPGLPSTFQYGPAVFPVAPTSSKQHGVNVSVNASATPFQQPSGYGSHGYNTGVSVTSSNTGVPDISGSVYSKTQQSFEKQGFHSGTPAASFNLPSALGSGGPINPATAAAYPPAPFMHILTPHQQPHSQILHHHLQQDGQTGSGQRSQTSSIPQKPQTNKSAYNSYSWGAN
# UniProt Q9C0C9: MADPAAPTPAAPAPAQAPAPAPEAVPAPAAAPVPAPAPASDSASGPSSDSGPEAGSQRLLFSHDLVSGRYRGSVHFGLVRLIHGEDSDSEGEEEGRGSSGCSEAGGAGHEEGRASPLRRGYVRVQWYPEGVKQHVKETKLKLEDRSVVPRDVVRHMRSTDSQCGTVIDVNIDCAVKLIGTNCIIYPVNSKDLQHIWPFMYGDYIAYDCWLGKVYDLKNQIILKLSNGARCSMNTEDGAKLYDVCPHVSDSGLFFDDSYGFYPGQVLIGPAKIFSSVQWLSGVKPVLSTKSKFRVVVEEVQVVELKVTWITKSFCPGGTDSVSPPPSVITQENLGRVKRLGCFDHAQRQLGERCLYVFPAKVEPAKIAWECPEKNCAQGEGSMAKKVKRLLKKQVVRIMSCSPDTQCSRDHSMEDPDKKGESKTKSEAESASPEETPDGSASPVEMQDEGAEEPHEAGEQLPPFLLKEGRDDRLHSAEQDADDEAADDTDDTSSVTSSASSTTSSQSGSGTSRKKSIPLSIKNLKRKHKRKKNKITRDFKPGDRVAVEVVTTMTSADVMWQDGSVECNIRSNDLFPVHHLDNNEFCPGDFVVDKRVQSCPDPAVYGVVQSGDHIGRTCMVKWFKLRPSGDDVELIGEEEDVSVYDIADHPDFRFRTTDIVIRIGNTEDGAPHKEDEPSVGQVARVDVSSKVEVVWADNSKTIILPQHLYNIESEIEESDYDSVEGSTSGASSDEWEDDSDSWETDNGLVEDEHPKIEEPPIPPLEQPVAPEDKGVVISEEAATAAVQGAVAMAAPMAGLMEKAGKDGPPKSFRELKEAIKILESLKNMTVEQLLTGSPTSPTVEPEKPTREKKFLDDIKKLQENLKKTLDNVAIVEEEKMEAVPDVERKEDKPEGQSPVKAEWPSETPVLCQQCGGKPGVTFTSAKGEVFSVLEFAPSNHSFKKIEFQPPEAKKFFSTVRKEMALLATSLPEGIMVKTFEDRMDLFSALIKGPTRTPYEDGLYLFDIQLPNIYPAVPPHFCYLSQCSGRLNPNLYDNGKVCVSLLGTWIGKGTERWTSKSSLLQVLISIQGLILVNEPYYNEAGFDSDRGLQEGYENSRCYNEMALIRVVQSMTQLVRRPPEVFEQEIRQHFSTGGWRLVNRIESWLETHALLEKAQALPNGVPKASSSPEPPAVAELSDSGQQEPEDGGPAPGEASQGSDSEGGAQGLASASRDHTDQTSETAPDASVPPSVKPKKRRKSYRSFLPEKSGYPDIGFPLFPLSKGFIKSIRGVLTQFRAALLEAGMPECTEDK
# UniProt O14933: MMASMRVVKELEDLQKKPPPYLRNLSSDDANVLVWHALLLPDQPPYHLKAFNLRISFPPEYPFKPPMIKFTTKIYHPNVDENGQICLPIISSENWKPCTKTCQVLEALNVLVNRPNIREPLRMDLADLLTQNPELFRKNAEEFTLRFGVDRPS
# UniProt P62253: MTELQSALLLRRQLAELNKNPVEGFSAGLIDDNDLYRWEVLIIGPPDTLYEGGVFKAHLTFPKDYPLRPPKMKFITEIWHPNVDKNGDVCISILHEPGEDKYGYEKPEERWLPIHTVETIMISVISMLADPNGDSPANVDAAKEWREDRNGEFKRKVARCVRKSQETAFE
# This is one part of the list.
# Compound: Cc1cc(ccc1-c1ccccc1)C(=O)N1CCCN(CC1)C(=O)CCl [compound 10]
# Experiment: probe-labelled cysteine peptide fold change vs DMSO (competition) (log2 fold change); higher = less target engagement (more negative = stronger competition)
# Conditions: 10 µM; THP-1; incubation time: 4 h
# 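Also: competitive profiling in live THP-1 cells: cysteine peptides tagged with an iodoacetamide desthiobiotin (IA-DTB) probe, intensity after compound treatment relative to DMSO-treated cells.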
row,Target,probe-labelled cysteine peptide fold change
1,TXNL1_O43396_135+149_AGCECLNESDEHGFDNCLR (UniProt O43396),-0.443
2,UBN1_Q9NPG3_711_VGGVLCTEEK (UniProt Q9NPG3),-0.0763
3,UBA6_A0AVT1_625_GHTEVIVPHLTESYNSHRDPPEEEIPFCTLK,-0.0656
4,UBE2Z_Q9H832_243_NYNECIR (UniProt Q9H832),-0.229
5,UBE3D_Q7Z6J8_330_VLYQPCIK (UniProt Q7Z6J8),-0.0259
6,UBL5_Q9BZL1_18_CNTDDTIGDLKK (UniProt Q9BZL1),0.169
7,UBR5_O95071_2267_CATTPMAVHR (UniProt O95071),0.0932
8,UBASH3B_Q8TF42_474_CVQTAHNILK (UniProt Q8TF42),-0.16
9,UBASH3B_Q8TF42_367_RPYEDQGLGETTPLTIICQPMQPLR (UniProt Q8TF42),-0.248
10,UBE2I_P63279_138_QILLGIQELLNEPNIQDPAQAEAYTIYCQNR (UniProt P63279),-0.0616
11,TXNRD2_Q9NNW7_446_DASQCYVK (UniProt Q9NNW7),0.198
12,UBR1_Q8IWV7_1577_WCADPALLNCLK (UniProt Q8IWV7),0.0611
13,UBR1_Q8IWV7_99_HSGAFQLCGR (UniProt Q8IWV7),-0.0461
14,UBAP2L_Q14157_68_NQDECVIALHDCNGDVNR (UniProt Q14157),0.132
15,UBE2O_Q9C0C9_163_STDSQCGTVIDVNIDCAVK (UniProt Q9C0C9),-0.131
16,UBA52_P62987_115_CGHTNNLRPK (UniProt P62987),-0.0567
17,TXNL1_O43396_135_AGCECLNESDEHGFDNCLRK (UniProt O43396),-0.225
18,UBR4_Q5T4S7_1724_EDGSCLALVK (UniProt Q5T4S7),0.0487

row,Target,probe-labelled cysteine peptide fold change
1,UBE2M_P61081_47_TCDISFSDPDDLLNFK (UniProt P61081),0.0206
2,UBR4_Q5T4S7_3864_ALSVLGCGHTSSTK (UniProt Q5T4S7),0.108
3,UBR4_Q5T4S7_4838+4841_QMEELIEEPGLTCCICR (UniProt Q5T4S7),0.351
4,UBE3C_Q15386_252_ILLENVLKPLHFTYNSCPEGAR (UniProt Q15386),-0.189
5,TXNL1_O43396_149_AGCECLNESDEHGFDNCLR (UniProt O43396),-0.202
6,UBE2L6_O14933_98_IYHPNVDENGQICLPIISSENWKPCTK (UniProt O14933),-0.284
7,UBE3A_Q05086_843_LPTSHTCFNVLLLPEYSSK (UniProt Q05086),-0.126
8,UBR1_Q8IWV7_1200_IHVDLFDLESGEYLCPLCK (UniProt Q8IWV7),0.111
9,UBR4_Q5T4S7_3872_CYGCASAVTEHCITLLR (UniProt Q5T4S7),0.0168
10,UAP1_Q16222_293_TNPTEPVGVVCR (UniProt Q16222),0.0439
11,UBA7_P41226_552_CTHYLK (UniProt P41226),0.0632
12,TYMS_P04818_180_IIMCAWNPR (UniProt P04818),0.0854
13,UBE2G1_P62253_90_NGDVCISILHEPGEDK (UniProt P62253),0.0065
14,UBA6_A0AVT1_156_YQCVVLTEMK,0.126
15,UBE2O_Q9C0C9_598_VQSCPDPAVYGVVQSGDHIGR (UniProt Q9C0C9),-0.267
16,UBR4_Q5T4S7_4146_QAACTIVEALATIPSR (UniProt Q5T4S7),-0.0407
17,UBR1_Q8IWV7_1197+1200_IHVDLFDLESGEYLCPLCK (UniProt Q8IWV7),-0.221

# An excerpt of these results, with tabs.
row	Target	probe-labelled cysteine peptide fold change
16	UBR4_Q5T4S7_4146_QAACTIVEALATIPSR (UniProt Q5T4S7)	-0.0407
17	UBR1_Q8IWV7_1197+1200_IHVDLFDLESGEYLCPLCK (UniProt Q8IWV7)	-0.221
